Test results reported in PubChem BioAssay AID1487 (National Center for Advancing Translational Sciences (NCATS), 2009).
The other results are listed elsewhere or left out. Shown are side measurements of this screen, not its main read-out; they come without a call. The list favours compounds with an active or inconclusive main result. Words in brackets tell the shape of the fitted curve; partial curves, single points and poor fits give uncertain potencies.

Experiment: qHTS Assay for Modulators of Lamin A Splicing
Conditions: HeLa LMNA splicing GFP/RFP minigene ratio, 48 h
In short: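 S3 HeLa stable clones carrying a lamin A-EGFP splicing minigene plus DsRed2 were seeded at 600 cells/well in Opti-MEM with 2% FBS, pin-dosed and incubated 48 h at 37°C. Acumen cytometry (488 nm) gave the GFP/RFP total-intensity ratio.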

[1] = measured here: GFP splicing reporter channel
[2] = measured here: RFP viability control channel

| Compound | AC50 [1] | AC50 [2] |
| --- | --- | --- |
| Cc1c(C(=O)Nc2cc(F)ccc2F)sc2nc(-c3ccc(F)cc3)cn12 | 0.0316 µM [falling, full curve, poor fit] |  |
| COc1ccc(OC)c(NS(=O)(=O)c2ccc(NC(=O)C3COc4ccccc4O3)cc2)c1 (stereo not drawn) | 15.8 µM [rising, single point] | 22.4 µM [rising, single point] |
| CCn1cc(C(=O)NCCCN(C)c2ccccc2)c(=O)c2cc(S(=O)(=O)N(C)C)ccc21 |  | 25.1 µM [rising, single point] |
| CCCCCCOc1ccc(C2C(=O)N(C3CCCCC3)CC(=O)N2C2CCCCC2)cc1 (stereo not drawn) | 0.398 µM [falling, partial curve] | 0.282 µM [falling, full curve, poor fit] |
| O=c1c2ccccc2nc2n1CCCS2 | 0.398 µM [falling, full curve, poor fit] | 1 µM [falling, partial curve, poor fit] |
| CC(C)(C)c1ccc(CNc2ccc([N+](=O)[O-])cn2)cc1 | 22.4 µM [rising, single point] | 35.5 µM [rising, single point] |
| CN1/C(=C\C(=O)c2cncc(Br)c2)C(C)(C)c2ccccc21 | 11.2 µM [rising, partial curve] | 17.8 µM [rising, partial curve] |
| COc1cc(/C=N/NC(=O)CSc2cc(C)c(Br)cc2C)ccc1O |  | 12.6 µM [rising, single point] |
| CCc1ccc(C2=C/C(=C/c3cccnc3)C(=O)O2)cc1 |  | 35.5 µM [rising, single point] |
| Cc1cc2cc3c(cc2nc1SCC(=O)N1c2ccccc2CC1C)OCO3 (stereo not drawn) |  | 15.8 µM [rising, single point] |
| Cc1ccc(S(=O)(=O)N2CCOCC2)cc1C(=O)N1c2ccccc2Sc2ccccc21 |  | 35.5 µM [rising, single point] |
| CCOC(=O)N1CCN(C(=O)CCCCn2c(=S)[nH]c3ccsc3c2=O)CC1 | 0.2 µM [rising, full curve, poor fit] | 7.94 µM [rising, full curve, poor fit] |
| OCCN1CCN(CCOc2ccccc2-c2ccccc2)CC1 | 14.1 µM [rising, partial curve] | 0.0501 µM [rising, full curve] |
| CC1(C)CC2CC(C)(CN2C(=S)NC(=O)c2ccccc2Cl)C1 (stereo not drawn) |  | 35.5 µM [rising, single point] |
| Cc1nc2c3ccccc3nc(SCC(=O)c3ccc(Cl)cc3)n2n1 |  | 35.5 µM [rising, single point] |
| Nc1n[nH]c2c1C1(CCCC1)Cc1ccccc1-2 | 1.41 µM [rising, partial curve, poor fit] |  |
| O=C(NC1CCCC1)C(c1ccc(N2CCOCC2)cc1)N(Cc1ccccc1)C(=O)c1ccco1 (stereo not drawn) | 12.6 µM [rising, partial curve, poor fit] | 0.891 µM [rising, full curve, poor fit] |
| O=C(c1ccccc1)N1c2nc(-c3ccco3)nn2C2(CCCCC2)[C@@H]2CCCC[C@@H]21 |  | 5.01 µM [rising, single point] |
| Cc1cc(C)cc(NC(=O)Cc2noc3ccccc23)c1 | 12.6 µM [falling, single point] | 3.16 µM [rising, partial curve] |
| O=C(NC1CCCc2ccccc21)c1ccc(Br)cc1 (stereo not drawn) |  | 31.6 µM [rising, single point] |
| CC(NC(=O)c1cccc(S(=O)(=O)N(C)C)c1)c1nc2ccccc2[nH]1 (stereo not drawn) | 0.0398 µM [falling, full curve, poor fit] | 0.708 µM [falling, single point] |
| Cc1ccccc1OCc1ccc(-c2nc(C#N)c(N3CCN(c4cccc(Cl)c4)CC3)o2)o1 | 0.0562 µM [falling, full curve, poor fit] |  |
| O=C1NC(c2ccccc2)=NC1(NS(=O)(=O)c1ccc(Cl)cc1)C(F)(F)F (stereo not drawn) |  | 7.94 µM [rising, partial curve] |
| CC(NC(=O)c1ccc(Cn2cc([N+](=O)[O-])cn2)cc1)c1ccccc1 (stereo not drawn) | 5.62 µM [rising, single point] |  |
| COc1ccc(C(=O)C2CCCN(C(=O)c3n[nH]c4c3CCCC4)C2)cc1OC (stereo not drawn) |  | 4.47 µM [falling, full curve, poor fit] |
| COc1ccc(NC(=O)/C(Cl)=C(/Cl)S(=O)(=O)Cc2ccc(C)cc2)cn1 | 3.55 µM [falling, full curve] | 5.62 µM [falling, full curve] |
| COc1ccccc1N1CCN(C(=O)C2CCCN(S(=O)(=O)c3ccc4c(c3)CCCN4C(C)=O)C2)CC1 (stereo not drawn) | 3.55 µM [falling, full curve, poor fit] |  |

| Compound | AC50 [1] | AC50 [2] |
| --- | --- | --- |
| COc1ccccc1NC1=CC(=O)CC(c2ccccc2)C1 (stereo not drawn) |  | 12.6 µM [rising, partial curve, poor fit] |
| COc1cc(/C=C(/C(=O)c2cccs2)c2nc3ccccc3[nH]2)ccc1O | 5.01 µM [falling, partial curve] | 3.55 µM [falling, full curve, poor fit] |
| Cn1nc(CC(=O)Nc2ccc(N3CCN(C(=O)OC(C)(C)C)CC3)cc2)c2ccccc2c1=O | 0.708 µM [rising, full curve] | 0.891 µM [rising, full curve] |
| Cc1ccc2nc(-c3ccccc3)c(CN3CCSCC3)n2c1 | 0.00316 µM [rising, full curve, poor fit] |  |
| CC(OC(=O)c1ccc(NS(=O)(=O)c2cccs2)cc1)C(=O)N(C)C1CCCCC1 (stereo not drawn) |  | 35.5 µM [rising, single point] |
| COc1cc(/C=N/NC(N)=S)ccc1OCC(=O)N1CCOCC1 | 0.794 µM [falling, full curve, poor fit] | 0.631 µM [falling, full curve, poor fit] |
| COc1ccc(N2CCN(C(=O)c3ccc(S(=O)(=O)N4CCOCC4)cc3)CC2)cc1 |  | 14.1 µM [rising, single point] |
| CC1CC(C)(C)NC(=S)O1 (stereo not drawn) | 5.62 µM [falling, single point] | 5.62 µM [falling, single point] |
| O=C(CCN1CCCC1)Nc1ccccc1 | 3.55 µM [falling, single point] | 3.16 µM [falling, single point] |
| CCOCCCNC(=O)/C(C#N)=C/c1ccc([N+](=O)[O-])o1 |  | 20 µM [rising, single point] |
| CCC(Sc1nc(C)cc(C)n1)C(=O)Nc1cc(C)on1 (stereo not drawn) |  | 0.631 µM [falling, full curve, poor fit] |
| O=C(COc1ccccc1)c1cn(CC(=O)N2CCCC2)c2ccccc12 | 0.0282 µM [falling, full curve, poor fit] |  |
| CCN(CC)c1ccc(-c2nn3c(-c4n[nH]c5c4CCC5)nnc3s2)cc1 |  | 0.1 µM [rising, full curve] |
| CCCCCC(=O)O[C@]1(C(C)=O)CC[C@H]2[C@@H]3CCC4=CC(=O)CC[C@]4(C)[C@H]3CC[C@@]21C | 15.8 µM [rising, partial curve, poor fit] | 20 µM [rising, partial curve] |
| CCOc1ccccc1N(CC)C(=O)Nc1cn(C)c(=O)c2ccccc12 | 35.5 µM [rising, partial curve, poor fit] | 35.5 µM [rising, partial curve, poor fit] |
| O=C(CN(c1cccc(C(F)(F)F)c1)S(=O)(=O)c1ccc(Cl)c([N+](=O)[O-])c1)NCc1ccccc1 | 35.5 µM [falling, single point] | 31.6 µM [falling, single point] |
| O=C(Nc1nc2ccccc2s1)C1c2ccccc2Oc2ccccc21 |  | 22.4 µM [rising, single point] |
| CN(C)S(=O)(=O)c1ccc(NC=O)cc1 | 35.5 µM [rising, partial curve, poor fit] | 0.0501 µM [rising, full curve] |
| Oc1cc2c(cc1O)CN(C(=S)NCCc1ccc(Cl)cc1)CCC2 | 14.1 µM [falling, single point] | 11.2 µM [falling, partial curve] |
| O=C(Nc1ccccn1)C1CCN(S(=O)(=O)c2cccs2)CC1 |  | 35.5 µM [rising, single point] |
| CC(=O)/C=C1/C(=O)Nc2ccccc21 |  | 35.5 µM [rising, single point] |
| CNC(=S)N/N=C1\C(=O)c2cccc3cccc1c23 | 17.8 µM [falling, single point] |  |
| CC1CCN(S(=O)(=O)c2ccc3c(c2)c(=O)c(C(=O)NCc2ccccc2Cl)cn3C)CC1 | 1.12 µM [falling, full curve, poor fit] | 0.891 µM [falling, full curve] |
| CCN(CC1COc2ccccc2O1)C(=S)Nc1ccc(F)cc1 (stereo not drawn) | 10 µM [rising, partial curve, poor fit] | 12.6 µM [rising, partial curve] |
| CCCCC(=O)NC(c1cccs1)c1cc(Cl)c2cccnc2c1O (stereo not drawn) | 2.82 µM [falling, single point] | 3.55 µM [falling, partial curve] |
| COc1ccc(C2=NN(c3nc4ccccc4s3)C(=O)C2)cc1 | 22.4 µM [rising, partial curve] | 14.1 µM [rising, single point] |

A second format for some results above:
Compound	AC50 [1]	AC50 [2]
COc1cc(/C=C(/C(=O)c2cccs2)c2nc3ccccc3[nH]2)ccc1O	5.01 µM [falling, partial curve]	3.55 µM [falling, full curve, poor fit]
Cn1nc(CC(=O)Nc2ccc(N3CCN(C(=O)OC(C)(C)C)CC3)cc2)c2ccccc2c1=O	0.708 µM [rising, full curve]	0.891 µM [rising, full curve]
Cc1ccc2nc(-c3ccccc3)c(CN3CCSCC3)n2c1	0.00316 µM [rising, full curve, poor fit]	
COc1ccc(N2CCN(C(=O)c3ccc(S(=O)(=O)N4CCOCC4)cc3)CC2)cc1		14.1 µM [rising, single point]
O=C(CCN1CCCC1)Nc1ccccc1	3.55 µM [falling, single point]	3.16 µM [falling, single point]
O=C(COc1ccccc1)c1cn(CC(=O)N2CCCC2)c2ccccc12	0.0282 µM [falling, full curve, poor fit]	
CCN(CC)c1ccc(-c2nn3c(-c4n[nH]c5c4CCC5)nnc3s2)cc1		0.1 µM [rising, full curve]
CCOc1ccccc1N(CC)C(=O)Nc1cn(C)c(=O)c2ccccc12	35.5 µM [rising, partial curve, poor fit]	35.5 µM [rising, partial curve, poor fit]
O=C(CN(c1cccc(C(F)(F)F)c1)S(=O)(=O)c1ccc(Cl)c([N+](=O)[O-])c1)NCc1ccccc1	35.5 µM [falling, single point]	31.6 µM [falling, single point]
O=C(Nc1nc2ccccc2s1)C1c2ccccc2Oc2ccccc21		22.4 µM [rising, single point]
CN(C)S(=O)(=O)c1ccc(NC=O)cc1	35.5 µM [rising, partial curve, poor fit]	0.0501 µM [rising, full curve]
O=C(Nc1ccccn1)C1CCN(S(=O)(=O)c2cccs2)CC1		35.5 µM [rising, single point]
CC1CCN(S(=O)(=O)c2ccc3c(c2)c(=O)c(C(=O)NCc2ccccc2Cl)cn3C)CC1	1.12 µM [falling, full curve, poor fit]	0.891 µM [falling, full curve]
CCN(CC1COc2ccccc2O1)C(=S)Nc1ccc(F)cc1 (stereo not drawn)	10 µM [rising, partial curve, poor fit]	12.6 µM [rising, partial curve]
CCCCC(=O)NC(c1cccs1)c1cc(Cl)c2cccnc2c1O (stereo not drawn)	2.82 µM [falling, single point]	3.55 µM [falling, partial curve]
COc1ccc(C2=NN(c3nc4ccccc4s3)C(=O)C2)cc1	22.4 µM [rising, partial curve]	14.1 µM [rising, single point]
